These results are taken from article PMC12331601.

Chains of the proteins cited; added tags and fusions are not shown.
UniProt Q9Y6M1: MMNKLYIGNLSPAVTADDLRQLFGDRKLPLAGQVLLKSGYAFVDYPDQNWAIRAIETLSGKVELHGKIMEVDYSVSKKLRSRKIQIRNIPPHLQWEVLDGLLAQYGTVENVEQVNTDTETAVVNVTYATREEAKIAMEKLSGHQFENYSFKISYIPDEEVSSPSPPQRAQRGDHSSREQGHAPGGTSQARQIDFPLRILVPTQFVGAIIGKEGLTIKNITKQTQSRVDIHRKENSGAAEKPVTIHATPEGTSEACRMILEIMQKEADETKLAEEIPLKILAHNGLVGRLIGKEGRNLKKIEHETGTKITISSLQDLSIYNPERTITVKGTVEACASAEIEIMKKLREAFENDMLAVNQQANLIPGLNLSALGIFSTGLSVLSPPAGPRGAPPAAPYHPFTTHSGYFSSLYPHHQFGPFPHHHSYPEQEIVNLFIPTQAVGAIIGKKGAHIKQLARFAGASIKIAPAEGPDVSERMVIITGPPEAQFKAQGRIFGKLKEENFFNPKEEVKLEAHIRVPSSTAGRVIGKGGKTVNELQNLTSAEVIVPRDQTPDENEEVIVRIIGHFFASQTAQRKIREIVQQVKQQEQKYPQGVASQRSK
UniProt P11142: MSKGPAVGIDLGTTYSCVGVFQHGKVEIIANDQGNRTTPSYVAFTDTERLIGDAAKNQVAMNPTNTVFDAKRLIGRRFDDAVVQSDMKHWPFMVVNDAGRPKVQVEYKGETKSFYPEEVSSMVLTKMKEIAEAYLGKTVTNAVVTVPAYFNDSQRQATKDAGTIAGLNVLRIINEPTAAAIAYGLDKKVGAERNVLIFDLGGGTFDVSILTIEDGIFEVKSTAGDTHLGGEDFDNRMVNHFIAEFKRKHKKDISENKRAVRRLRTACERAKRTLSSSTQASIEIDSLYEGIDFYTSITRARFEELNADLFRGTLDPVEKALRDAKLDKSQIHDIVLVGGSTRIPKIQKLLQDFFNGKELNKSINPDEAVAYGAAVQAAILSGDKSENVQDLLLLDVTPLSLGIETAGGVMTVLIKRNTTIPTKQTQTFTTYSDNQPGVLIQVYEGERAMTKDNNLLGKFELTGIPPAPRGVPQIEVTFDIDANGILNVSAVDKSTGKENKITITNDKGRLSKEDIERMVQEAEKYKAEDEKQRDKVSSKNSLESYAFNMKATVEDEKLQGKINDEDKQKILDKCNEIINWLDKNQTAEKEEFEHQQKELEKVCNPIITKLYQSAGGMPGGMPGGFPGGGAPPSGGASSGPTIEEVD
UniProt O00425: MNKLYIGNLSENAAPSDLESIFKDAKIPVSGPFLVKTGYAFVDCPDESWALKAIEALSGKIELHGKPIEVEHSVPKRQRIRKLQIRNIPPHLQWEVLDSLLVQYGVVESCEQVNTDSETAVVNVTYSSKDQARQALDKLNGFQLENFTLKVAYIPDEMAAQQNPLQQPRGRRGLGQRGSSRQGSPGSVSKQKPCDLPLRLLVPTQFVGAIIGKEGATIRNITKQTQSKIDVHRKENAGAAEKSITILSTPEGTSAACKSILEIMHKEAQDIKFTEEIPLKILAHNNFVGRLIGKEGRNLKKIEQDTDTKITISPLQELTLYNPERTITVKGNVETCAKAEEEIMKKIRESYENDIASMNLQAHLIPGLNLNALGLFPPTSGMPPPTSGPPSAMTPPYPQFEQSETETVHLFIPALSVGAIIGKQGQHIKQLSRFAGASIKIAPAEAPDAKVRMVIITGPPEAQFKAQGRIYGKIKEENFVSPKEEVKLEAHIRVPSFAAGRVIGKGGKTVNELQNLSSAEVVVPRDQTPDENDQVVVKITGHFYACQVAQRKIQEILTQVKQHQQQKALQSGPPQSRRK

This experiment addresses T1, BAG5 (UniProt Q9UL15).
T1 sequence: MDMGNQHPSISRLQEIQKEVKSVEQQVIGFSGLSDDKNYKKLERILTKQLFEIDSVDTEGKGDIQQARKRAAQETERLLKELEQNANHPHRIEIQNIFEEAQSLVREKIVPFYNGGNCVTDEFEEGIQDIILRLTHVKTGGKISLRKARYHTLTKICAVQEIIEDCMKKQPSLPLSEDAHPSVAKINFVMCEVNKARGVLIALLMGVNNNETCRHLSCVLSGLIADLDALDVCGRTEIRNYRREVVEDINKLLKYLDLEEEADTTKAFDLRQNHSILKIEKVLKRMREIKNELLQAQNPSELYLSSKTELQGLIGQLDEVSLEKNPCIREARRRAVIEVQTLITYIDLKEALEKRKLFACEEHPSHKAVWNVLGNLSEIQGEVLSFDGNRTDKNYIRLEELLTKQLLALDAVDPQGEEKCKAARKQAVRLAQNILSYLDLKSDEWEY
Description: co-IP; NP-40 lysate (50 mM Tris-HCl pH 7.4, 150 mM NaCl) with anti-Flag magnetic beads overnight at 4 °C, four washes; immunoblot; cell line not stated.

Results are given in words; binding and its absence hold for the method and conditions named. In cells and extracts the contact can be indirect. Some entries that bind do so weakly or less than the wild type.

With IGF2BP2 (from UniProt Q9Y6M1 1-599), the binding result is reported as “binds”. As for HSPA8 (from UniProt P11142 1-646), the entry is “binds”; as for IGF2BP3 (from UniProt O00425 1-579), “binds”.
